Measured values taken from article PMC6739877.
These are yes or no findings as the source states them, for the method shown. Binding seen in cells or lysates may run through a third protein. Here binding means that the protein was enriched with, or labelled near, the bait; the list need not be complete. Where a sequence is shown, tags or fusion partners need not be part of it.

Chains of the proteins cited; added tags and fusions are not shown.
UniProt Q9QY76: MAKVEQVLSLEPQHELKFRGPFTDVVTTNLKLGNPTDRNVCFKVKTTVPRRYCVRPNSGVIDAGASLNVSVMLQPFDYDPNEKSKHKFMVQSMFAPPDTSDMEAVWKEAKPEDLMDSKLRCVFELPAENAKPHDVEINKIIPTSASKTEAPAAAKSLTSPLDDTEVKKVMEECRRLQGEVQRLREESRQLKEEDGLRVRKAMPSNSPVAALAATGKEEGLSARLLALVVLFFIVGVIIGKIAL

Target: T1, MNV NS4-FLAG (murine norovirus) (UniProt Q80J95)
T1 sequence: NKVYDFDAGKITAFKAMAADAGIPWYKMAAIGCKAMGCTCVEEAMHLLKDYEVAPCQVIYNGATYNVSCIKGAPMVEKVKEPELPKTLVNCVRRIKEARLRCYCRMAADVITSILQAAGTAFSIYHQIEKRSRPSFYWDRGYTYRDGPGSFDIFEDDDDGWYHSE
Test: affinity purification with mass spectrometry; anti-FLAG purification from SILAC-labelled BV2 cells infected with NS1/2-FLAG or NS4-FLAG MNV against WT MNV; Benzonase in the lysis buffer; quantitative mass spectrometry, three repeats

| Substance | binding |
| --- | --- |
| MNV VF1 protein product of ORF4 (murine norovirus) | binds |
| VapB (from UniProt Q9QY76 1-243) | binds |
